Values of other authors in patent US20140066504A1, “ANALOGS AND PRODRUGS OF BUMETANIDE; COMPOSITIONS AND METHODS OF USE” (priority 2012, published 2014).

System: rats

NS(=O)(=O)c1cc(C(=O)O)c(NCc2ccco2)cc1Cl [furosemide]
effect on kainic acid status: blocks kainic acid status
